This note sets out measurements from patent US20200222537A1, “BIOPHOTONIC COMPOSITIONS AND USES THEREOF” (KLOX TECHNOLOGIES LIMITED, priority 2016, published 2020).

≈ marks a conversion by molar mass, not a printed value. Where “and” joins values, the source holds several entries; their conditions need not be identical. Equal entries are not always repeated.

Series [1] can be described thus: Emission peak (Flex Station II). The series is classed as physicochemical. The settings on record: ex. 300 nm, gel. The protocol: (§1) The compounds were dissolved in the solvents and at the concentrations indicated in Table 2 and the absorbance and emission peaks were measured (measured using a Flex Station II, Model 384 by Molecular Devices Comp.).
Series [2] can be described thus: Absorbance peak (Flex Station II). The series is classed as physicochemical. The settings on record: gel and liquid. The procedure: as §1
Series [3] is described as follows: physchem. The settings on record: organic solvent or mixture.

A word on the solubility: it is how much of the substance goes into solution per volume.

For the compound `CC(C)=CCCC1(C)C(CC=C(C)C)CC2(CC=C(C)C)C(=O)C(CC=C(C)C)=C(O)C1(C(=O)C(C)C)C2=O` (stereo not drawn) [Hyperforin], the “Emission peak (nm)” value in series [1] is 375 nm and 750 nm. The “Absorbance peak (nm)” value in series [2] is reported as 300 nm (gel and. For the same compound, the solubility in series [3] came to 250 µg/mL (≈ 466 µM).
